Values of other authors in patent publication US20110071027A1, “HIGH […] AQUEOUS […] CONCENTRATES AND METHODS” (priority 2009, published 2011).

Details: at 25° C.; acid form

In the case of `O=C(O)CNCP(=O)(O)O` [glyphosate acid, N-(phosphonomethyl)glycine], the solubility in water is given as “about 12 g/L”.
